In PubChem BioAssay AID330 (DTP/NCI, 2004):
The list does not hold the whole screen: it is rich in T/C values a quarter to a half above the control, in often repeated tests (any T/C) and in doses without a T/C. Other doses and runs of a compound stand elsewhere. T/C is the treated group as % of the vehicle group. Some entries give survivors of the animals treated and no T/C: the source files T/C as zero there, which appears to mark a toxic dose or a test without result, not a measured value. Some survivor counts are full or nearly so, which does not show that the dose was tolerated: the source hardly ever lists a survival T/C far under the control, and the zero likely stands for such cases as well. Counts of survivors are from the toxicity check (mostly the fifth day) where no day follows; animals may have died later. Schedules are NCI's codes, taken here to give the interval after Q, in days (D) or hours (H), and the number of doses after X. Some molecules as drawn cover several salts, stereoisomers or complexes of the source; a dose is that of the sample tested. Where survival is the endpoint, this PubChem deposit counts one and a half times the control or more as active, and values a quarter to a half above the control carry no call in these data; other NCI protocols may use other cut-offs. Some entries hold several experiments; the values are given in rising order.

System: P388 leukemia ip, CD2F1 mice, survival T/C
Test: NCI In Vivo Anticancer Drug Screen. Data for tumor model P388 Leukemia (intraperitoneal) in CD2F1 (CDF1) mice
Details: T/C endpoint: median survival time, higher T/C = longer survival
[1] = dose: 200.0 mg/kg/injection, schedule: Q01DX005 (ip), vehicle: saline with Tween-80
[2] = dose: 60.0 mg/kg/injection, schedule: Q01DX005 (ip), vehicle: Klucel (hydroxypropylcellulose) (HPC)
[3] = dose: 120.0 mg/kg/injection, schedule: Q01DX005 (ip), vehicle: Klucel (hydroxypropylcellulose) (HPC)
[4] = dose: 240.0 mg/kg/injection, schedule: Q01DX005 (ip), vehicle: Klucel (hydroxypropylcellulose) (HPC)
[5] = dose: 50.0 mg/kg/injection, schedule: Q01DX009 (ip), vehicle: saline with Tween-80
[6] = dose: 100.0 mg/kg/injection, schedule: Q01DX009 (ip), vehicle: saline with Tween-80
[7] = dose: 200.0 mg/kg/injection, schedule: Q01DX009 (ip), vehicle: saline with Tween-80
[8] = dose: 50.0 mg/kg/injection, schedule: Q01DX009 (ip), vehicle: saline
[9] = dose: 100.0 mg/kg/injection, schedule: Q01DX009 (ip), vehicle: saline
[10] = dose: 200.0 mg/kg/injection, schedule: Q01DX009 (ip), vehicle: saline
[11] = dose: 200.0 mg/kg/injection, schedule: Q04DX003 (ip), vehicle: saline
[12] = dose: 400.0 mg/kg/injection, schedule: Q04DX003 (ip), vehicle: saline
[13] = dose: 200.0 mg/kg/injection, schedule: Q01DX005 (ip), vehicle: Klucel (hydroxypropylcellulose) (HPC)
[14] = dose: 50.0 mg/kg/injection, schedule: Q01DX005 (ip), vehicle: Klucel (hydroxypropylcellulose) (HPC)
[15] = dose: 100.0 mg/kg/injection, schedule: Q01DX005 (ip), vehicle: Klucel (hydroxypropylcellulose) (HPC)

In the case of `CN(C)N=Nc1cn[nH]c1C(N)=O`, the T/C (dose: 100.0 mg/kg/injection, schedule: Q04DX003 (ip), vehicle: Klucel (hydroxypropylcellulose) (HPC)) is reported as 127 % of control and the T/C (dose: 200.0 mg/kg/injection, schedule: Q04DX003 (ip), vehicle: Klucel (hydroxypropylcellulose) (HPC)) is reported as 135 % of control.
With `[N-]=[N+]=Nc1ccc(SSCCC(=O)ON2C(=O)CCC2=O)cc1` the survivor count [1] was 0 of 5.
For `COc1cc2c3c(c1OC)C=C[C@@H]1CCCN(CC2)[C@H]31`, the survivor count [2] was 2 of 6, the survivor count [3] was 0 of 6 and the survivor count [4] was 0 of 6.
`N#CC(=C1N=c2ccccc2=N1)c1[nH]c(O)c2ccccc12` was tested, and the survivor count [5] was 6 of 6, the survivor count [6] was 6 of 6 and the survivor count [7] was 5 of 6.
With `Cc1ccc(C(=O)CC[N+](C)(C)C)cc1` the survivor count [8] was 3 of 6, the survivor count [9] was 0 of 6 and the survivor count [10] was 0 of 6.
With `O=C(N/N=C/c1ccccc1O)C(F)(F)F` the survivor count [7] was 6 of 6.
In the case of `ClCCCCOCBr`, the survivor count (dose: 120.0 mg/kg/injection, schedule: Q01DX005 (ip), vehicle: saline) is reported as 6 of 6.
With `CCOC(=O)C1=C(C(C)=O)C(c2ccc(OC)c(OC)c2)C(C(C)=O)=C(C(=O)OCC)N1` the survivor count (dose: 240.0 mg/kg/injection, schedule: Q01DX005 (ip), vehicle: saline) was 0 of 6.
With `Cn1cccc1/C=N/N1CC(=O)N(c2ccccc2)CC1=O` the survivor count [1] was 1 of 6.
In the case of `CSC(SC)=C(C#N)C#N`, the survivor count [11] is reported as 3 of 6.
In the case of `CCC1(CCC(=O)OC)CCC[N+]2=C1c1[nH]c3ccc(Br)cc3c1CC2` (stereo not drawn), the survivor count (dose: 100.0 mg/kg/injection, schedule: Q01DX005 (ip), vehicle: saline) is reported as 0 of 6 and the survivor count (dose: 200.0 mg/kg/injection, schedule: Q01DX005 (ip), vehicle: saline) is reported as 0 of 6.
In the case of `C[N+](C)(C)CCC(=O)c1ccco1`, the survivor count [5] is reported as 2 of 6, the survivor count [6] is reported as 0 of 6 and the survivor count [7] is reported as 0 of 6.
`CC(=O)Nc1ccc2nc(SC(C)C)sc2c1` was tested, and the survivor count (dose: 50.0 mg/kg/injection, schedule: Q01DX009 (ip), vehicle: Klucel (hydroxypropylcellulose) (HPC)) was 6 of 6, the survivor count (dose: 100.0 mg/kg/injection, schedule: Q01DX009 (ip), vehicle: Klucel (hydroxypropylcellulose) (HPC)) was 6 of 6 and the survivor count (dose: 200.0 mg/kg/injection, schedule: Q01DX009 (ip), vehicle: Klucel (hydroxypropylcellulose) (HPC)) was 6 of 6.
With `O=[N+]([O-])c1ccc([Se]c2ncccn2)c([N+](=O)[O-])c1` the survivor count [12] was 4 of 6.
With `FC(F)(F)C1(C(F)(F)F)O[Si]2(OC(C(F)(F)F)(C(F)(F)F)c3ccccc32)c2ccccc21` (tested in a mixture with another compound) the survivor count (dose: 200.0 mg/kg/injection, schedule: Q04DX002 (ip), vehicle: Klucel (hydroxypropylcellulose) (HPC)) was 3 of 6 and the survivor count (dose: 400.0 mg/kg/injection, schedule: Q04DX002 (ip), vehicle: Klucel (hydroxypropylcellulose) (HPC)) was 0 of 6.
`Cc1cc(NCCCNCCCNc2cc(C)nc3cc(N)ccc23)c2ccc(N)cc2n1` was tested, and the T/C (dose: 6.25 mg/kg/injection, schedule: Q01DX009 (ip), vehicle: other) was 138 % of control, the survivor count (dose: 25.0 mg/kg/injection, schedule: Q01DX009 (ip), vehicle: other) was 0 of 6 and the survivor count (dose: 50.0 mg/kg/injection, schedule: Q01DX009 (ip), vehicle: other) was 0 of 6. The survivor count (dose: 100.0 mg/kg/injection, schedule: Q01DX009 (ip), vehicle: other) was 0 of 6.
`O=C1c2ccccc2C(=O)N1CN1C(=O)c2ccccc2S1(=O)=O` was tested, and the survivor count [13] was 6 of 6.
`NC(=O)c1nnn(Cc2cc(Cl)c(C(=O)c3ccc(Cl)cc3)c(Cl)c2)c1N` was tested, and the T/C [2] was 127 % of control, the T/C [3] was 125 % of control and the T/C [4] was 134 % of control.
For `CCCCCCCC[N+]1(CC)CCCC1`, the survivor count [8] was 0 of 6, the survivor count [9] was 0 of 6 and the survivor count [10] was 0 of 6.
With `COc1ccc2c(c1)CCC1C2CCC2(C)C1CCC2(C)N(C)C` (stereo not drawn) the survivor count (dose: 25.0 mg/kg/injection, schedule: Q01DX005 (ip), vehicle: Klucel (hydroxypropylcellulose) (HPC)) was 1 of 6, the survivor count [14] was 0 of 6 and the survivor count [15] was 0 of 6. For the same compound, the survivor count [13] was 0 of 6.
With `CCCCCCCCCCCC[N+]1([O-])CCCCCC1` the survivor count [9] was 2 of 6 and the survivor count [10] was 0 of 6.
`C=C(OC)C(Nc1cc(OC)c(OC)cc1C(=O)OC1CC(O[C@@H]2C(=O)C(NC(=O)OC)=C3/C(=C\CSSSC)[C@]2(O)C#C/C=C\C#C[C@@H]3OC2OC(C)C(NOC3CC(O)C(SC)C(C)O3)C(O)C2OC2CC(OC)C(NCCC)CO2)OC(C)C1O)OC` (stereo partly drawn) was tested, and the T/C (dose: 0.32 micrograms/kg/injection, schedule: Q01DX005 (ip), vehicle: alcohol) was 146 % of control, the T/C (dose: 0.64 micrograms/kg/injection, schedule: Q01DX005 (ip), vehicle: alcohol) was 138 and 146 % of control and the T/C (dose: 1.28 micrograms/kg/injection, schedule: Q01DX005 (ip), vehicle: alcohol) was 146 % of control. For the same compound, the survivor count (dose: 5.0 micrograms/kg/injection, schedule: Q01DX005 (ip), vehicle: saline + alcohol) was 6 of 6, the survivor count (dose: 10.0 micrograms/kg/injection, schedule: Q01DX005 (ip), vehicle: saline + alcohol) was 3 of 6 and the survivor count (dose: 20.0 micrograms/kg/injection, schedule: Q01DX005 (ip), vehicle: saline + alcohol) was 1 of 6. For the same compound, the T/C (dose: 20.0 nanograms/kg/injection, schedule: Q01DX005 (ip), vehicle: saline + alcohol) was 137 % of control, the survivor count (dose: 40.0 micrograms/kg/injection, schedule: Q01DX005 (ip), vehicle: saline + alcohol) was 0 of 6 and the T/C (dose: 40.0 nanograms/kg/injection, schedule: Q01DX005 (ip), vehicle: saline + alcohol) was 132 % of control. The T/C (dose: 80.0 nanograms/kg/injection, schedule: Q01DX005 (ip), vehicle: saline + alcohol) was 148 % of control and the T/C (dose: 160.0 nanograms/kg/injection, schedule: Q01DX005 (ip), vehicle: saline + alcohol) was 141 % of control.
`CCCCCCCCCCCC(=O)NCC(=O)NC1C(CO)OC(Nc2ncnc3nc[nH]c23)C(O)C1O` (stereo not drawn) was tested, and the T/C (dose: 0.25 mg/kg/injection, schedule: Q01DX009 (ip), vehicle: other) was 141 % of control, the T/C (dose: 0.5 mg/kg/injection, schedule: Q01DX009 (ip), vehicle: other) was 128 % of control and the T/C (dose: 1.0 mg/kg/injection, schedule: Q01DX009 (ip), vehicle: other) was 129 and 137 % of control. The survivor count (dose: 4.0 mg/kg/injection, schedule: Q01DX009 (ip), vehicle: other) was 6 of 6 and the survivor count (dose: 8.0 mg/kg/injection, schedule: Q01DX009 (ip), vehicle: other) was 6 of 6.
In the case of `O=c1[nH]c(=O)c2cc([N+](=O)[O-])cc([N+](=O)[O-])c2[nH]1`, the survivor count [11] is reported as 6 of 6 and the survivor count [12] is reported as 1 of 6.
For `S=C(NCCNC(=S)[S][Sn]([c]1ccccc1)([c]1ccccc1)[c]1ccccc1)[S][Sn]([c]1ccccc1)([c]1ccccc1)[c]1ccccc1`, the T/C (dose: 11.0 mg/kg/injection, schedule: Q01DX009 (ip), vehicle: saline with Tween-80) was 131 % of control, the T/C (dose: 16.5 mg/kg/injection, schedule: Q01DX009 (ip), vehicle: saline with Tween-80) was 133 % of control and the T/C (dose: 25.0 mg/kg/injection, schedule: Q01DX009 (ip), vehicle: saline with Tween-80) was 136 % of control. The T/C (dose: 37.5 mg/kg/injection, schedule: Q01DX009 (ip), vehicle: saline with Tween-80) was 136 % of control.
With `CCC1C2Cc3ccc(O)cc3C1(CC)CCN2C` (stereo not drawn) the survivor count (dose: 100.0 mg/kg/injection, schedule: Q01DX005 (ip), vehicle: saline with Tween-80) was 0 of 6, the survivor count [13] was 2 of 6 and the survivor count [1] was 0 of 6.
In the case of `COP(=O)(CS(=O)(=O)Oc1ccc(S(C)(=O)=O)cc1)OC`, the survivor count [14] is reported as 0 of 6 and the survivor count [15] is reported as 0 of 6.
In the case of `NNC(N)=NC1CCCCC1`, the survivor count [13] is reported as 0 of 5.
